Laboratory results: PubChem BioAssay AID504744 (Drosophila RNAi Screening Center, 2011)
Screen: 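Identify dsRNAs that increase or decrease phospho-dAkt after insulin treatment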 (primary screen). Cell system: Drosophila Kc167 cells. Reagents: long dsRNA against Drosophila genes, 250 ng dsRNA per well of a 384-well plate. Timing: 3 days of knock-down, then overnight serum-free starvation before stimulation. Conditions: bovine insulin at 387 nM for 10 minutes after 12 h without serum. Measurement: 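In-cell antibody fluorescence for phospho-dAkt in each well over DNA-dye signal, with log2 residuals expressed as z-scores adjusted for cell count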. Active means: 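Under insulin, a gene counts as a hit if the average z-score of two replicates lies above 2.5 or below -2.5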.
The deposit covers about 23,000 reagents; this is an unselected part of those with a known target gene and a result. Over the whole deposit, 98 (0.43%) were called active. 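Only hit calls are given; the phospho-dAkt signals, z-scores and hit direction were not deposited.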 The numbers tell different reagents against one gene apart. A plus sign joins genes that one reagent is predicted to hit. Reagent sequences are not shown.

gene knocked down,reagent,Outcome
Adgf-B,1,inactive
BaraC,1,inactive
bab2,1,inactive
bab2,2,inactive
FucTA,1,inactive
mEFTu2,1,inactive
sbr,1,inactive
sbr,2,inactive
CG33308,1,inactive
CG8191 + CG12379,1,inactive
RpL30,1,inactive
Trxr2,1,inactive
CG14102,1,inactive
CG31534 (retired record),1,inactive
CG31534 (retired record),2,inactive
TM4SF,1,inactive
140up,1,inactive
psq,1,inactive
CG32106,1,inactive
Rcd-1r + CG13102,1,inactive
CG8534,1,inactive
EMC6,1,inactive
wat,1,inactive
Lerp,1,inactive
Lerp,2,inactive
Lerp,3,inactive
Lerp,4,inactive
pasi2,1,inactive
CG1698,1,inactive
Acsf3,1,inactive
mRpL20,1,inactive
CG11857,1,inactive
CG31075,1,inactive
CG8086,1,inactive
CG8086,2,inactive
CG6023,1,inactive
Cpr65Ea,1,inactive
yin,1,inactive
yin,2,inactive
AP-2alpha,1,inactive
Rad60,1,inactive
wus,1,inactive
amd,1,inactive
amd,2,inactive
Wdr33,1,inactive
sle,1,inactive
CG18628,1,inactive
msopa,1,inactive
CG13653,1,inactive
obe,1,inactive
ZnT86D,1,inactive
tank,1,inactive
Mkrn1,1,inactive
sta,1,inactive
Ubc2,1,inactive
Ubc2,2,inactive
CG17672,1,inactive
CG17672,2,inactive
CG6664,1,inactive
CG8834,1,inactive
azot,1,inactive
CG34005,1,inactive
CheA84a,1,inactive
Pex12,1,inactive
CG6403,1,inactive
Pdss2,1,inactive
CG33490,1,inactive
dib,1,inactive
CG15194 (retired record),1,inactive
CG15194 (retired record),2,inactive
kuz,1,inactive
CG14052,1,inactive
CG14052,2,inactive
Hsp26,1,inactive
CG3894,1,inactive
CG3894,2,inactive
CG3894,3,inactive
CG15019,1,inactive
PCNA,1,inactive
CG13085,1,inactive
Col4a1,1,inactive
Cph,1,inactive
Cph,2,inactive
Wdr81,1,inactive
CR31032,1,inactive
cni,1,inactive
Gr77a,1,inactive
Jon66Ci,1,inactive
Erk7,1,inactive
Erk7,2,inactive
Erk7,3,inactive
nanos,1,inactive
mRpL16,1,inactive
CG46385,1,inactive
CG46385,2,inactive
Trmt6,1,inactive
CG30020,1,inactive
CG30020,2,inactive
CG7031,1,inactive
fs(1)Yb,1,inactive
sog,1,inactive
CG14647,1,inactive
CG14647,2,inactive
superdeath,1,inactive
U2A,1,inactive
CG16812,1,inactive
CG1894,1,inactive

As entered above:
ZnT86D, Outcome → inactive
For “Outcome”, Cpr65Ea has inactive
Value of pasi2 in “Outcome”: inactive
Entry for CG33308 under “Outcome”: inactive
wus, Outcome → inactive
